From patent US7928206B2 (priority 2002, dated 2011)
Read-outs that look alike come from different tables or passages of the source. The name of at least one read-out is uncertain.

B1: rTOM-TK1: purified recombinant tomato (Lycopersicum esculentum) thymidine kinase, SEQ ID NO: 4 (protein, listed as Lycopersicon esculentum)
chain: MAFSSSARNPVDLRNGSKNSFCPVGEIHVIVGPMFAGKTTALLRRVNLESNDGRNVVLIKSSKDARYAVDAVVTHDGTRFPCWSLPDLSSFKQRFGKDAYEKVDVIGIDEAQFFGDLYEFCCNAADFDGKIIVVAGLDGDYLRKSFGSVLDIIPLADTVTKLTARCELCNRRAFFTFRKTNETETELIGGADIYMPVCRQHYVNGQSVNESAKMVLESHKVSNELILESPLVDP
B2: rAT-TK1a: purified recombinant Arabidopsis thaliana thymidine kinase TK1a, SEQ ID NO: 9 (protein, listed as Arabidopsis thaliana)
chain: MATLKASFLIKTLDSDVTGDFLSDLERRGSGAVHVIMGPMFSGKSTSLLRRIKSEISDGRSVAMLKSSKDTRYAKDSVVTHDGIGFPCWALPDLMSFPEKFGLDAYNKLDVIGIDEAQFFGDLYEFCCKVADDDGKIVIVAGLDGDYLRRSFGAVLDIIPIADSVTKLTARCEVCGHKAFFTLRKNCDTRTELIGGADVYMPVCRKHYITNHIVIKASKKVLEDSDKARAESCVAATI

Columns and labels:
[1] = Kinetic constants of purified recombinant TK, substrate AZT
[2] = Kinetic constants of purified recombinant TK, substrate Thd
[3] = substrate Thd; data from Le Breton 2002 (*) or Kokoris and Black 2002 (**); cited from earlier work

Molecule	kcat/Km [1]	kcat/Km [2]	kcat/Km [3]
B1	30400 M⁻¹ s⁻¹	32500 M⁻¹ s⁻¹	
B2	29900 M⁻¹ s⁻¹		2353 M⁻¹ s⁻¹
